Data from patent US9604933B2, “Pyrazolochalcones as potential anticancer agents” (COUNCIL OF SCIENTIFIC AND INDUSTRIAL RESEARCH, priority 2013, dated 2017).
Some entries share one result that the patent states for a list of compounds. Some compounds share one range, which may span the group rather than tell each member.

System: human tumor cell lines
Assay: NCI SRB cytotoxicity, all fifty nine human tumor cell lines
Assay type: cell-based
Conditions: for GI50: across fifty nine cell lines in nine cell panels, read-out: GI50 value range; for GI50 values: fifty nine cell lines in nine cancer cell panels
Protocol: The pyrazolochalcones (7e, 8e, 10e, 11e, 12e, 13e and 8f) have been tested against fifty nine human tumor cell lines derived from nine cancer types (leukemia, non-small cell lung cancer, colon cancer, CNS cancer, melanoma, ovarian cancer, renal cancer, prostate cancer and breast cancer) as per the NCI protocol. For each compound, dose response curves for individual cell lines have been measured at a minimum of five concentrations at 10 fold dilutions. A protocol of 48 h continuous drug exposure has been used, and a sulforhodamine B (SRB) protein assay has been used to estimate cell viability or growth. The concentration for 50% cell growth inhibition (GI50), 50% cell death (LC50, 50% growth) and total cell growth inhibition (TGI, 0% growth) values were tabulated (Table-1). DMSO was used as control to calculate the values of GI50, LC50 and TGI. The compounds 7e, 8e, 10e, 11e, 12e, 13e and 8f has been evaluated for their in vitro cytotoxicity in […] cell lines from nine human cancer types of leukemia (K-562, SR), non-small cell lung (Hop-62, NCI-H226, NCI-H522), colon (HCT-116, HCT-15, HCC-2998), CNS (SF-539), melanoma (SK-MEL-5, UACC-62, M14), ovarian (IGROV1), renal (A498), prostate (PC3) and breast (BT-549, MDA-MB-435, HS578T) origin. The results are expressed as percent of cell growth determined relative to that of untreated control cells (Table 2).
The mean graph midpoint values of Log10 TGI and Log10 LC50 as well as Log10 GI50 for compounds 7e, 8e, 10e, 11e, 12e, 13e and 8f is listed in Table-3. […] The mean graph mid points of Log10 TGI and Log10, LC50 have shown similar pattern to the log10 GI50 mean graph mid points.

SMILES	GI50 [µM]	GI50 values [µM]
COc1ccc(C(=O)/C=C/c2cc(-c3cc(OC)c(OC)c(OC)c3)n[nH]2)cc1 [7e, (E)-1-(4-methoxyphenyl)-3-(3-(3,4,5-trimethoxyphenyl)-1H-pyrazol-5-yl)prop-2-en-1-one]	0.18 to 4.14	< 29.2
COc1ccc(C(=O)/C=C/c2cc(-c3cc(OC)c(OC)c(OC)c3)n[nH]2)cc1OC [8e, (E)-1-(3,4-dimethoxyphenyl)-3-(3-(3,4,5-trimethoxyphenyl)-1H-pyrazol-5-yl)prop-2-en-1-one]	0.18 to 4.14	< 29.2
COc1ccc(C(=O)/C=C/c2cc(-c3ccc4c(c3)OCO4)n[nH]2)cc1OC [8f, (E)-3-(3-(benzo[d][1,3]dioxol-5-yl)-1H-pyrazol-5-yl)-1-(3,4-dimethoxyphenyl)prop-2-en-1-one]		< 29.2
COc1cc(C(=O)/C=C/c2cc(-c3cc(OC)c(OC)c(OC)c3)n[nH]2)cc(OC)c1OC [10e, (E)-1-(3,4,5-trimethoxyphenyl)-3-(3-(3,4,5-trimethoxyphenyl)-1H-pyrazol-5-yl)prop-2-en-1-one]	0.18 to 4.14	< 29.2
COc1cc(-c2cc(/C=C/C(=O)c3ccc4c(c3)OCO4)[nH]n2)cc(OC)c1OC [11e, (E)-1-(benzo[d][1,3]dioxol-5-yl)-3-(3-(3,4,5-trimethoxyphenyl)-1H-pyrazol-5-yl)prop-2-en-1-one]		< 29.2
COc1cc(-c2cc(/C=C/C(=O)c3ccc(Cl)c(Cl)c3)[nH]n2)cc(OC)c1OC [12e, (E)-1-(3,4-dichlorophenyl)-3-(3-(3,4,5-trimethoxyphenyl)-1H-pyrazol-5-yl)prop-2-en-1-one]		< 29.2
COc1cc(-c2cc(/C=C/C(=O)c3ccc(F)c(F)c3)[nH]n2)cc(OC)c1OC [13e, (E)-1-(3,4-difluorophenyl)-3-(3-(3,4,5-trimethoxyphenyl)-1H-pyrazol-5-yl)prop-2-en-1-one]		< 29.2
